Data on four sequences can be found in PMC5824887, “A family of unconventional deubiquitinases with modular chain specificity determinants” (Nature Communications, 2018).

For some assays here: A weaker result is weaker than the reference pair of the same experiment. Protein sequences can lack the tags named with them. For at least one entry, the source does not settle the construct or the ends of the probe. At least one verdict rests on a figure or table, not on a statement of the authors.

Series [1] deals with T1, ZUFSP full-length (Homo sapiens) (UniProt Q96AP4).
T1 sequence (looked up): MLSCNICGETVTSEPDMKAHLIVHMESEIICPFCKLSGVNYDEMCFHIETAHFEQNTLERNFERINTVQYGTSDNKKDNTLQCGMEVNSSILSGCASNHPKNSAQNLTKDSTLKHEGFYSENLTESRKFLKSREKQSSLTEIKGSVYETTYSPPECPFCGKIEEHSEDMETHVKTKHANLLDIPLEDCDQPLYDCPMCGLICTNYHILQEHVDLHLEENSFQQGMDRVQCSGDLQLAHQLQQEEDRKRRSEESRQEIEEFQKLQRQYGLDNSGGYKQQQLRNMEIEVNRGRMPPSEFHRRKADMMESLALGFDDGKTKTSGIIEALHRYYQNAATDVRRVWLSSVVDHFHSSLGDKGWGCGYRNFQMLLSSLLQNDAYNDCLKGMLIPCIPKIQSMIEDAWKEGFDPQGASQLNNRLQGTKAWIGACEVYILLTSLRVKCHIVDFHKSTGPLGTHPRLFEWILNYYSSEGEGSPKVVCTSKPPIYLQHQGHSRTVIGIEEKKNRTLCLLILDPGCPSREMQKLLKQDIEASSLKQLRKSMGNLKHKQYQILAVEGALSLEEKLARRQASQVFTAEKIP
The series can be described thus: EMSA. To be noted: 5 µM ZnSO4, partial shift, EMSA: 0.5 µM DNA, 5 µM protein, 10 mM TRIS pH 7.5, 0.2 mM DTT, 5 µM ZnSO4, 1 h at 4 °C, 1.5% agarose gel, recombinant protein, residues 1-578, protein details: 6His-Smt3 tag removed by Senp1. Background: In EMSA bound probe runs differently from free probe, usually more slowly.

In series [2] the target is T2, ZUFSP232-578 (Homo sapiens) (UniProt Q96AP4).
T2 sequence (looked up): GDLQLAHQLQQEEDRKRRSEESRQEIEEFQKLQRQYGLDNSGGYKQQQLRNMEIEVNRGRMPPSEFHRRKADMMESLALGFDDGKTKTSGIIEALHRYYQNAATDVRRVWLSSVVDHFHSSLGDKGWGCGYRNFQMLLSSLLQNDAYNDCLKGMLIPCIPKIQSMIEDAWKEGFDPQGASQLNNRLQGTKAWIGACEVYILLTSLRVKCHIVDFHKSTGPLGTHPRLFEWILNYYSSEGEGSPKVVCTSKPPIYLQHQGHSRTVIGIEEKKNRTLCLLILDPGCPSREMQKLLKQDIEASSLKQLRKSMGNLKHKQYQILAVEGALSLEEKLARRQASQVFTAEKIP
The series can be described thus: EMSA. To be noted: 5 µM ZnSO4, better binder than full-length, EMSA: 0.5 µM DNA, 5 µM protein, 10 mM TRIS pH 7.5, 0.2 mM DTT, 5 µM ZnSO4, 1 h at 4 °C, 1.5% agarose gel, recombinant protein, residues 232-578, protein details: 6His-Smt3 tag removed by Senp1.

[3] abbreviates: label: 5'-6-FAM, single-stranded DNA.

On to “GGGCTTCTCCCGCCCCCGCCTTTTTTCCGGCGGCGGGGGCGGGAGAAGTAGATTG [OriL+6]”, for which the binding result in series [1] (folded or branched DNA) is given as “binds more weakly”; in series [2] (folded or branched DNA), “binds”.

Take “GGGCTTCTCCCGCCTTTTTTCCCGGCGGCGGGAGAAGTAGATTGAAG (double strand) [dsDNA]”: the results for the binding result in series [1] (label: 5'-6-FAM on strand 1) and in series [2] (label: 5'-6-FAM on strand 1) were “binds more weakly” and “binds”, respectively.

For the sequence “GGGCTTCTCCCGCCTTTTTTCCCGGCGGCGGGAGAAGTAGATTGAAG [OriL]”, the binding result in series [1] (folded or branched DNA) is “binds more weakly”; in series [2] (folded or branched DNA) it was “binds”.

Turning to “GGGCTTCTCCCGCCTTTTTTCCCGGCGGCGGGAGAAGTAGATTGAAG [ssDNA]”, the binding result in series [1] (setting [3]) is “binds more weakly”; in series [2] (setting [3]) it was “binds”.
